According to the supplement of paper PMC12889115:
The list shows a part of the results. These are raw signals, not scaled to a control.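 First-pass screen: polymyxin B was added at a level that permeabilizes the Salmonella outer membrane while sparing the inner membrane. DMSO wells, with and without polymyxin B, defined maximum growth. Because plates differed from one another, each plate's data were ranked separately and the compounds with the lowest OD600 were carried forward as hits.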

Tested on: Salmonella enterica serovar Typhimurium SL1344
Assay: bacterial growth OD600 after 18 h with compound and polymyxin B; higher = more bacterial growth (less inhibition)
Conditions: 50 µM, Mueller-Hinton broth

Compound	bacterial growth OD600 (polymyxin B 0.75 µg/mL)	bacterial growth OD600 (polymyxin B 1 µg/mL)
Cc1nc(N2CCC(C(=O)NCCc3cnn(-c4ccccc4)c3)CC2)nc2ccc(C(C)C)cc12	0.511	
O=C(NCc1cnn(Cc2ccccc2)c1)C1CCC(=O)N(CCN2CCOCC2)C1 (centres undefined)		0.857
CCCc1cc(CNC(=O)c2ccc(N3CCN(C(C)C)CC3)nc2)on1		0.95
COc1ccc(O)c(CN2CCC(C3(Cc4ccccc4Cl)NC(=O)N(CC4CC4)C3=O)CC2)c1 (centres undefined)	0.743	
OCCC1CN(Cc2ccc(F)cc2)CCN1Cc1ccccc1F (centres undefined)		0.873
Cc1cc2ncn(Cc3cc(C(=O)N(C)C(C)c4nccs4)n[nH]3)c2cc1C (centres undefined)		1.16
CC(=O)N1CCC(N2CCC(n3nccc3NC(=O)CCCc3ccccc3)CC2)CC1		0.932
CCOC(=O)N1CCN(C(=O)C2CC23CCN(C(=O)c2cc(C(C)C)n[nH]2)CC3)CC1 (centres undefined)	1.01	
COc1ccccc1Oc1ncccc1CNCc1cnn(C)c1		1.13
OCC1CCN(c2ncc3c(n2)CCCC3NCc2cccc(Cl)c2)CC1 (centres undefined)	0.757	
CC(c1cccs1)N(C)C(=O)c1cc(COc2ccc3c(c2)OCO3)[nH]n1 (centres undefined)		1.02
COc1ccc(C(=O)N2CCC3(CC2)c2ccccc2[C@@H](NC(=O)c2ccccc2)[C@@H]3O)cc1F	0.995	
CN(CC(=O)N(C)C1CCCN(CCc2ccccc2)C1)Cc1cccnc1 (centres undefined)		1.05
COc1ccc(Cc2nc3ccc(C(=O)N(C)Cc4nccn4C)cc3o2)cc1		0.89
COC(=O)[C@@H](NC(=O)C1CCN(c2nc(C)c3ccccc3n2)CC1)C(C)C	0.893	
CCn1nc(C)cc1C(=O)N(CC1CCN(Cc2ccccc2F)CC1)CC1CCCO1 (centres undefined)		1.15
COc1ccccc1CCc1nnc(CCC(=O)N2CCN(CC3CC3)CC2)o1		0.918
CCOc1cc(CN2CCCC(Nc3cccc(F)c3)C2)ccc1O (centres undefined)		0.868
CN(CCc1cnn(C)c1)C(=O)CC1(c2cccc(C(F)(F)F)c2)CC(=O)N(C2CC2)C1=O (centres undefined)	0.764	

3 structures from above, arranged by molar mass, high to low.
Compound	bacterial growth OD600 (polymyxin B 0.75 µg/mL)	bacterial growth OD600 (polymyxin B 1 µg/mL)
CN(CCc1cnn(C)c1)C(=O)CC1(c2cccc(C(F)(F)F)c2)CC(=O)N(C2CC2)C1=O (centres undefined)	0.764	
Cc1cc2ncn(Cc3cc(C(=O)N(C)C(C)c4nccs4)n[nH]3)c2cc1C (centres undefined)		1.16
OCC1CCN(c2ncc3c(n2)CCCC3NCc2cccc(Cl)c2)CC1 (centres undefined)	0.757	
